According to patent US20090226428A1 (CEPHALON AUSTRALIA, published 2009):
Residue numbers refer to the chain shown, from its start. Results are given in words; binding and its absence hold for the method and conditions named. Some results given as binding are weak or reduced against the parent protein; the word gives no strength.

Sequences of proteins named here, by UniProt entry; tags and fusion partners are left off. Residues count along the entry.
UniProt P01375, residues 77-233: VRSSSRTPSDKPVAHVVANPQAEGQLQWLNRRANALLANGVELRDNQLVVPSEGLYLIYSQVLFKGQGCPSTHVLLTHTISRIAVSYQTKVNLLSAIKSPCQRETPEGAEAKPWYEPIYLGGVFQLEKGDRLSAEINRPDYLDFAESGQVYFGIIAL

B1: Owl Monkey 1 CDR2-grafted dAb (CDR=YAATKLQS) (protein)
VL: DIQMTQSPSSLSASVGDRVTITCRASQSIDSYLHWYQQKPGKAPKLLIYAATKLQSGVPSRFSGSGSGTDFTLTISSLQPEDFATYYCQQVVWRPFTFGQGTKVEIKR
B2: Owl Monkey 2 CDR2-grafted dAb (CDR=YEASSLQS) (protein)
VL: B1 VL with A50E, T52S, K53S
B3: Marmoset 1 CDR2-grafted dAb (CDR=YEASKLQS) (protein)
VL: B1 VL with A50E, T52S

biological target: T1, human TNF-α (human, UniProt P01375 77-233); test: receptor binding assay (plate ELISA): dAb mixed with TNF, binding to captured TNF receptor 1-Fc

binding, binds:
B1
B2
B3

biological target: T1, human TNF-α; test: receptor binding assay (ELISA): dAb mixed with TNF (10 ng/ml), binding of TNF to captured TNF receptor 1 Fc fusion protein detected; blocked partner TNF receptor 1-Fc
Method: dAbs diversified in the 14 selected positions were tested for the ability to inhibit the binding of TNF to recombinant TNF receptor 1 (p55). Briefly, Maxisorp plates were incubated overnight with […] anti-human Fc mouse monoclonal antibody (Zymed, San Francisco, USA). The wells were washed with phosphate buffered saline (PBS) containing 0.05% Tween-20 and then blocked with 1% BSA in PBS before being incubated with 100 ng/ml TNF receptor 1 Fc fusion protein (R&D Systems, Minneapolis, USA). Each dAb was mixed with TNF which was added to the washed wells at a final concentration of 10 ng/ml. TNF binding was detected with 0.2 mg/ml biotinylated anti-TNF antibody (HyCult biotechnology, Uben, Netherlands) followed by 1 in 500 dilution of horse radish peroxidase labelled streptavidin (Amersham Biosciences, UK) and then incubation with TMB substrate (KPL, Gaithersburg, USA). The reaction was stopped by the addition of HCl and the absorbance was read at 450 nm. Anti-TNF dAb activity lead to a decrease in TNF binding and therefore a decrease in absorbance compared with the TNF only control (FIG. 5).

binding, binds:
B1
B2
B3
